# In the supplement of paper PMC4604168 (melanoma cell lines):
# The list shows a part of the results. Many values rest on one well or one pass, so single values are uncertain.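 Imaging used 1,536-well plates; nuclei positive for cleaved PARP by antibody were divided by total DNA-stained nuclei to yield the apoptosis fraction. Doses for screening kept most cells viable, and cell lines differ markedly in resting and induced cleaved-PARP levels.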
# Test system: MeWo
# Test: cleaved PARP positive nuclei fraction relative to DMSO control; melanoma cells; higher = more apoptosis
# Settings: library dose: low library concentration; 72 h
row,SMILES,cleaved PARP positive nuclei fraction
1,"Cc1cc(Nc2cc(N3CCN(C)CC3)nc(Sc3ccc(NC(=O)C4CC4)cc3)n2)n[nH]1 [Tozasertib] + Cc1cc(Nc2cc(N3CCN(C)CC3)nc(/C=C/c3ccccc3)n2)n[nH]1 [ENMD2076] (first compound 0.006 µM, partner dose 0.04 µM)",86.4%
2,"O=C(Nc1cc(C(F)(F)F)cc(C(F)(F)F)c1)c1cc(Cl)ccc1O + C[C@]1(c2nc3c(C(N)=O)cccc3[nH]2)CCCN1 [Veliparib] (first compound 0.016 µM, partner dose 1.4 µM)",60.8%
3,"O=C(Nc1cc(C(F)(F)F)cc(C(F)(F)F)c1)c1cc(Cl)ccc1O + Nc1ncn([C@H]2C[C@H](O)[C@@H](CO)O2)c(=O)n1 [decitabine] (first compound 0.016 µM, partner dose 0.1 µM)",105%
4,"CC[C@]1(O)C[C@H]2CN(CCc3c([nH]c4ccccc34)[C@@](C(=O)OC)(c3cc4c(cc3OC)N(C=O)[C@H]3[C@@](O)(C(=O)OC)[C@H](OC(C)=O)[C@]5(CC)C=CCN6CC[C@]43[C@@H]65)C2)C1 [vincristine] + Cn1c(Nc2ccc(C(F)(F)F)cc2)nc2cc(Oc3ccnc(-c4ncc(C(F)(F)F)[nH]4)c3)ccc21 [CHIR265] (first compound 0.0001 µM, partner dose 0.08 µM)",1630%
5,"Cc1cc(Nc2cc(N3CCN(C)CC3)nc(Sc3ccc(NC(=O)C4CC4)cc3)n2)n[nH]1 [Tozasertib] + N#CC[C@H](C1CCCC1)n1cc(-c2ncnc3[nH]ccc23)cn1 [ruxolitinib] (first compound 0.006 µM, partner dose 1 µM)",71.7%
6,"CC[C@]1(O)C[C@H]2CN(CCc3c([nH]c4ccccc34)[C@@](C(=O)OC)(c3cc4c(cc3OC)N(C=O)[C@H]3[C@@](O)(C(=O)OC)[C@H](OC(C)=O)[C@]5(CC)C=CCN6CC[C@]43[C@@H]65)C2)C1 [vincristine] + C=C(c1ccc(C(=O)O)cc1)c1cc2c(cc1C)C(C)(C)CCC2(C)C [Bexarotene] (first compound 0.0001 µM, partner dose 2 µM)",106%
7,"O=C(/C=C/c1cccnc1)NCCCCC1CCN(C(=O)c2ccccc2)CC1 + C#Cc1cccc(Nc2ncnc3cc(OCCOC)c(OCCOC)cc23)c1 [erlotinib] (first compound 0.01 µM, partner dose 0.8 µM)",181%
8,"Cc1cn(-c2cc(NC(=O)c3ccc(C)c(Nc4nccc(-c5cccnc5)n4)c3)cc(C(F)(F)F)c2)cn1 [nilotinib] + CO[C@H]1C[C@@H]2CC[C@@H](C)[C@@](O)(O2)C(=O)C(=O)N2CCCC[C@H]2C(=O)O[C@H]([C@H](C)C[C@@H]2CC[C@@H](OCCO)[C@H](OC)C2)CC(=O)[C@H](C)/C=C(\C)[C@@H](O)[C@@H](OC)C(=O)[C@H](C)C[C@H](C)/C=C/C=C/C=C/1C [everolimus] (first compound 0.2 µM, partner dose 0.02 µM)",72.4%
9,"O=C(Nc1cc(C(F)(F)F)cc(C(F)(F)F)c1)c1cc(Cl)ccc1O + Cn1c(Nc2ccc(C(F)(F)F)cc2)nc2cc(Oc3ccnc(-c4ncc(C(F)(F)F)[nH]4)c3)ccc21 [CHIR265] (first compound 0.016 µM, partner dose 0.08 µM)",145%
10,"O=c1[nH]nc(Sc2ncc([N+](=O)[O-])s2)n1-c1ccc2c(c1)OCCO2 + OCc1c[nH]c2ccccc12 [Indole-3-carbinol] (first compound 0.2 µM, partner dose 0.8 µM)",119%
11,"O=C(/C=C/c1cccnc1)NCCCCC1CCN(C(=O)c2ccccc2)CC1 + CO[C@H]1C[C@@H]2CC[C@@H](C)[C@@](O)(O2)C(=O)C(=O)N2CCCC[C@H]2C(=O)O[C@H]([C@H](C)C[C@@H]2CC[C@@H](OCCO)[C@H](OC)C2)CC(=O)[C@H](C)/C=C(\C)[C@@H](O)[C@@H](OC)C(=O)[C@H](C)C[C@H](C)/C=C/C=C/C=C/1C [everolimus] (first compound 0.01 µM, partner dose 0.02 µM)",78.6%
12,"O=c1[nH]nc(Sc2ncc([N+](=O)[O-])s2)n1-c1ccc2c(c1)OCCO2 + CS(=O)(=O)CCNCc1ccc(-c2ccc3ncnc(Nc4ccc(OCc5cccc(F)c5)c(Cl)c4)c3c2)o1 [lapatinib] (first compound 0.2 µM, partner dose 0.8 µM)",75%
13,"COc1cc([C@@H]2c3cc4c(cc3[C@@H](O[C@@H]3O[C@@H]5CO[C@@H](C)O[C@H]5[C@H](O)[C@H]3O)[C@H]3COC(=O)[C@H]23)OCO4)cc(OC)c1O [etoposide] + CO[C@H]1C[C@@H]2CC[C@@H](C)[C@@](O)(O2)C(=O)C(=O)N2CCCC[C@H]2C(=O)O[C@H]([C@H](C)C[C@@H]2CC[C@@H](OCCO)[C@H](OC)C2)CC(=O)[C@H](C)/C=C(\C)[C@@H](O)[C@@H](OC)C(=O)[C@H](C)C[C@H](C)/C=C/C=C/C=C/1C [everolimus] (first compound 0.02 µM, partner dose 0.02 µM)",125%
14,"Cc1cn(-c2cc(NC(=O)c3ccc(C)c(Nc4nccc(-c5cccnc5)n4)c3)cc(C(F)(F)F)c2)cn1 [nilotinib] + Nc1cccc2c1CN(C1CCC(=O)NC1=O)C2=O [lenalidomide] (first compound 0.2 µM, partner dose 1 µM)",200%
15,"Cc1ccc(Nc2nccc(N(C)c3ccc4c(C)n(C)nc4c3)n2)cc1S(N)(=O)=O [Pazopanib] + CNC(=O)c1cc(Oc2ccc(NC(=O)Nc3ccc(Cl)c(C(F)(F)F)c3)cc2)ccn1 [sorafenib] (first compound 0.4 µM, partner dose 0.4 µM)",86.1%
16,"O=c1[nH]nc(Sc2ncc([N+](=O)[O-])s2)n1-c1ccc2c(c1)OCCO2 + CS(=O)(=O)c1ccc(C(=O)Nc2ccc(Cl)c(-c3ccccn3)c2)c(Cl)c1 [vismodegib] (first compound 0.2 µM, partner dose 1 µM)",94%

# A few values from above:
# O=C(/C=C/c1cccnc1)NCCCCC1CCN(C(=O)c2ccccc2)CC1 + CO[C@H]1C[C@@H]2CC[C@@H](C)[C@@](O)(O2)C(=O)C(=O)N2CCCC[C@H]2C(=O)O[C@H]([C@H](C)C[C@@H]2CC[C@@H](OCCO)[C@H](OC)C2)CC(=O)[C@H](C)/C=C(\C)[C@@H](O)[C@@H](OC)C(=O)[C@H](C)C[C@H](C)/C=C/C=C/C=C/1C [everolimus] (first compound 0.01 µM, partner dose 0.02 µM) | cleaved PARP positive nuclei fraction: 78.6%
# Cc1cn(-c2cc(NC(=O)c3ccc(C)c(Nc4nccc(-c5cccnc5)n4)c3)cc(C(F)(F)F)c2)cn1 [nilotinib] + CO[C@H]1C[C@@H]2CC[C@@H](C)[C@@](O)(O2)C(=O)C(=O)N2CCCC[C@H]2C(=O)O[C@H]([C@H](C)C[C@@H]2CC[C@@H](OCCO)[C@H](OC)C2)CC(=O)[C@H](C)/C=C(\C)[C@@H](O)[C@@H](OC)C(=O)[C@H](C)C[C@H](C)/C=C/C=C/C=C/1C [everolimus] (first compound 0.2 µM, partner dose 0.02 µM) | cleaved PARP positive nuclei fraction: 72.4%
